Paper PMC13032676, “PGM1 deficiency is linked to sarcomeric and mitochondrial dysfunction in patient-derived iPSC-cardiomyocytes” (Journal of Translational Medicine, 2026)
No constants are given. Whether binding was seen depends on the method and setting. Some results given as binding are weak or reduced against the parent protein; the word gives no strength. Tags and fused reporters may be left off the sequences shown.

Target: T1, Phosphoglucomutase-1 (human PGM1), recombinant (human) (UniProt P36871)
T1 sequence (chain, RED-tris-NTA dye bound to the His6 tag): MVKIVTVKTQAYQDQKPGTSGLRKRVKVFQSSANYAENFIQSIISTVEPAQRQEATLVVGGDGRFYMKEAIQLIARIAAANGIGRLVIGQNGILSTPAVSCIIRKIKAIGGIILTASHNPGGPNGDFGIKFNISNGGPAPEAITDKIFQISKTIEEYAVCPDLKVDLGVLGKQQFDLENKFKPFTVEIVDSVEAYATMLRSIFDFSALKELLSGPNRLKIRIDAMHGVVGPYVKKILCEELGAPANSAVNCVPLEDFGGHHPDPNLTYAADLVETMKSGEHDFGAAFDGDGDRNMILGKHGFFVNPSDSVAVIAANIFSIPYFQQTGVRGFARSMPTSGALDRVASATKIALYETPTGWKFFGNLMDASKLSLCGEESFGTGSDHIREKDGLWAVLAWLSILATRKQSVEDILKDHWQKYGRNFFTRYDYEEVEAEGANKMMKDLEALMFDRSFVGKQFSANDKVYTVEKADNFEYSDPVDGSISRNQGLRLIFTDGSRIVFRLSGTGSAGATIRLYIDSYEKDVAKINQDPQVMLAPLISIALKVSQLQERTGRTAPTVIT
Assay: MST; PGM1 labelled on its His6 tag with RED-tris-NTA, 50 nM in all tubes; peptide in a 16-step serial dilution, 375 mM to 11.4 nM as printed; 10 min incubation in the dark; standard capillaries, Monolith NT.115, 22 °C, 40% excitation power, 40% MST power; Kd by MO.Affinity v.2.2.4; both purified

## SSQPRQYNNPIGLYSAETLREMAQMY [Wild-type peptide representing the conserved Zasp motif (ZM) of ZASP/Cypher (LDB3), 26-mer]
  binding: binds

## SSQPRQYNNPIGLYSAEILREMAQMY [ZM peptide of ZASP/Cypher (LDB3) with the dilated cardiomyopathy-associated T206I mutation, 26-mer]
  binding: binds
